Test results as given in article PMC6048166.
No constants are given. Whether binding was seen depends on the method and setting. Binding seen in cells or lysates may run through a third protein. Some entries that bind do so weakly or less than the wild type.

Sequences of proteins named here, by UniProt entry; tags and fusion partners are left off.
UniProt Q8WXI9: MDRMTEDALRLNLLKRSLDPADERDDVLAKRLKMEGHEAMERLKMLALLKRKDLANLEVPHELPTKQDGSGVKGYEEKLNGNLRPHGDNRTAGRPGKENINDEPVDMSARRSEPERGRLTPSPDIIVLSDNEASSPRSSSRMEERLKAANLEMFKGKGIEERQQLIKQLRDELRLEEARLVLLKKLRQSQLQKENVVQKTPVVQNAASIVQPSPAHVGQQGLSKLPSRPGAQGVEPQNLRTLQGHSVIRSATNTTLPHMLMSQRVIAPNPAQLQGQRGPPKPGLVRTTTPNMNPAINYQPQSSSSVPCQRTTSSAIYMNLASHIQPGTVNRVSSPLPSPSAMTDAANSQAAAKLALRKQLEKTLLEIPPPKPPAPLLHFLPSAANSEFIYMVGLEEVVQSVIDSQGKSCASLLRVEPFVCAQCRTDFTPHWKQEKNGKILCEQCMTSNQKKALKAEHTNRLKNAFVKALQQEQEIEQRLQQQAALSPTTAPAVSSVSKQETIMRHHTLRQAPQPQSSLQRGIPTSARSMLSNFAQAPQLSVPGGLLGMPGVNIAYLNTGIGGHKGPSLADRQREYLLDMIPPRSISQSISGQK
UniProt P01106: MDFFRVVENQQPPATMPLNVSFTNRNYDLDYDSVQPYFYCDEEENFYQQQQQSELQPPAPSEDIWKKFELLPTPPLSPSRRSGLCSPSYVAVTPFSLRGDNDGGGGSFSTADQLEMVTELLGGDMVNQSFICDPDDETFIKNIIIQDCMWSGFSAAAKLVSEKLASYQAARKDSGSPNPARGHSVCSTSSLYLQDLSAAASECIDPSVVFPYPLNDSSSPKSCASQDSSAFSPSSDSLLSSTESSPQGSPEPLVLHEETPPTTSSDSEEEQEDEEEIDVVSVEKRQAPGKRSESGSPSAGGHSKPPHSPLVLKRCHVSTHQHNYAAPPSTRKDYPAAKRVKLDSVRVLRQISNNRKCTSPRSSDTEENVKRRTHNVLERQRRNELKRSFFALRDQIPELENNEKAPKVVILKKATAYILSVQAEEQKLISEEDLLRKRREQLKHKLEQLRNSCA

How the values were obtained:
GST-GATAD2B (human) = GST-GATAD2B (human) (UniProt Q8WXI9); experiment: pull-down; GST pull-down; Venus-flag-MYC detected in complex with GST-GATAD2B; conditions not given
[1] = target: Nanoluc-tagged GATAD2B (human) (UniProt Q8WXI9); experiment: FRET or BRET; BRETn saturation (OncoPPi screen): NLuc-GATAD2B as donor and Venus-tagged genes as acceptors, co-transfected pairwise into HEK293T cells in 1536-well plates; read 48 h after transfection with furimazine

| binding (GST-GATAD2B (human)) | binding [1] | Substance |
| --- | --- | --- |
| binds |  | Venus-flag-MYC (from UniProt P01106 1-454) |
|  | binds | Venus-tagged MYC (from UniProt P01106 1-454) |
